Taken from: PubChem BioAssay AID686938 (Drosophila RNAi Screening Center, 2013)

- Assay: 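Knock-downs reducing store-operated calcium influx in Drosophila cells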 (primary screen)
- Cells: Drosophila S2R+ cells
- Reagents: long dsRNA against Drosophila genes, about 0.25 µg dsRNA per well, roughly 10,000 cells
- Time to read-out: 5 days of knock-down before the calcium assay
- Conditions: thapsigargin (SERCA pump blocker) to empty calcium stores; entry signal taken 4 min after adding it
- Read-out: 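Duplicate raw fluo-4 intensities per well from a plate reader, at rest and four minutes after thapsigargin emptied calcium stores; entry-to-rest ratio filled for only some wells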
- Direction: calcium entry signal: higher = stronger calcium signal after store depletion; entry to resting ratio: higher = more calcium entry relative to resting level; resting calcium signal: higher = higher resting calcium signal
- Units: calcium entry signal in fluorescence units; resting calcium signal in fluorescence units
- Active means: 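Hit if the duplicate-averaged plate z-score for entry over resting signal is under −3; wells with weak total dye signal (Fmax z < −2) or more than 5 off-targets removed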
- Meaning of the calls: active = strongly reduced calcium entry; inactive = no strong reduction
The deposit covers about 23,000 reagents; below is an unselected part of those that have a named target and a result. Of all reagents, 75 (0.33%) got an active call. 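Raw plate signals without normalisation; calls rest on plate z-scores that were not deposited; ratio present for only 364 wells.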 A plus sign joins genes that one reagent is predicted to hit. Not given: the dose of the treatment.

Target gene	DRSC id	calcium entry signal, replicate 1	calcium entry signal, replicate 2	entry to resting ratio	resting calcium signal, replicate 1	resting calcium signal, replicate 2	Call
alt (aluminum tubes)	DRSC15315	6.59e7	4.04e7		3.15e7	1.82e7	inactive
CG11555	DRSC00315	4.28e7	4.07e7		2.11e7	1.89e7	inactive
se (sepia)	DRSC10713	2.53e7	3.46e7		1.20e7	1.47e7	inactive
CG3223	DRSC15468	5.16e7	4.39e7		2.57e7	2.09e7	inactive
CG12920	DRSC06234	3.22e7	3.93e7		1.58e7	1.62e7	inactive
Mkp + CG34140	DRSC08585	4.21e7	4.24e7		1.92e7	2.06e7	inactive
fs(1)Ya (female sterile (1) Young arrest)	DRSC18776	3.69e7	4.50e7		1.87e7	2.10e7	inactive
fs(1)Ya (female sterile (1) Young arrest)	DRSC23058	3.26e7	3.36e7		1.75e7	1.57e7	inactive
PolD2 (DNA polymerase delta subunit 2)	DRSC08147	3.17e7	3.31e7		1.63e7	1.80e7	inactive
danr (distal antenna-related)	DRSC14651	4.58e7	4.27e7		2.29e7	1.75e7	inactive
CG6867	DRSC20013	3.30e7	3.64e7		1.71e7	1.81e7	inactive
CG9826	DRSC04570	4.29e7	4.07e7		2.14e7	1.76e7	inactive
Sodh2 (Sorbitol dehydrogenase 2)	DRSC16865	3.60e7	4.43e7		1.74e7	2.08e7	inactive
RabX5	DRSC08608	3.95e7	4.17e7		2.07e7	1.81e7	inactive
mRpS11 (mitochondrial ribosomal protein S11)	DRSC15732	4.54e7	4.90e7		2.10e7	8.15e7	inactive
CG5966	DRSC18394	4.13e7	3.14e7		1.59e7	1.50e7	inactive
CG5111	DRSC15717	4.23e7	3.64e7		2.00e7	1.73e7	inactive
CG30485	DRSC06376	3.51e7	4.10e7		1.86e7	1.85e7	inactive
CG32198	DRSC09553	4.33e7	4.22e7		1.96e7	2.09e7	inactive
Nrt (Neurotactin)	DRSC11237	2.50e7	3.38e7		1.22e7	2.23e7	inactive
Atg4a (Autophagy-related 4a)	DRSC00656	4.50e7			2.29e7		inactive
Tmem63 (Transmembrane protein 63)	DRSC06063	2.93e7	3.61e7		1.39e7	1.56e7	inactive
CG6287	DRSC02947	4.79e7			2.04e7		inactive
CG14759	DRSC06494	3.38e7	3.43e7		1.63e7	1.44e7	inactive

Entries above whose gene name begins with F or f:
Target gene	DRSC id	calcium entry signal, replicate 1	calcium entry signal, replicate 2	entry to resting ratio	resting calcium signal, replicate 1	resting calcium signal, replicate 2	Call
fs(1)Ya (female sterile (1) Young arrest)	DRSC18776	3.69e7	4.50e7		1.87e7	2.10e7	inactive
fs(1)Ya (female sterile (1) Young arrest)	DRSC23058	3.26e7	3.36e7		1.75e7	1.57e7	inactive

Continued:
Target gene	DRSC id	calcium entry signal, replicate 1	calcium entry signal, replicate 2	entry to resting ratio	resting calcium signal, replicate 1	resting calcium signal, replicate 2	Call
CG3434	DRSC10365	5.18e7	4.34e7		3.47e7	1.78e7	inactive
Pex5 (Peroxin 5)	DRSC18552	2.74e7	5.52e7	1.9	1.42e7	2.04e7	inactive
Top3alpha (Topoisomerase 3alpha)	DRSC03460	4.21e7	4.98e7		2.20e7	2.13e7	inactive
Xrp1	DRSC15282	8.24e6	1.08e7		6.78e6	2.89e7	inactive
Xrp1	DRSC15283	1.46e7	1.16e7		8.40e6	3.09e7	inactive
CG8774	DRSC16445	3.98e7	5.32e7		1.62e7	2.15e7	inactive
CSN8 (COP9 signalosome subunit 8)	DRSC02257	4.39e7			2.51e7		inactive
CG17470	DRSC02621	4.12e7			2.15e7		inactive
Hers (Histone gene-specific Epigenetic Repressor in late S phase)	DRSC19429	3.19e7	4.38e7		1.53e7	1.93e7	inactive
Hers (Histone gene-specific Epigenetic Repressor in late S phase)	DRSC19676	4.50e7	3.87e7		2.05e7	1.75e7	inactive
Dh44-R1 (Diuretic hormone 44 receptor 1)	DRSC07172	3.78e7	4.21e7		1.60e7	1.91e7	inactive
Ir48b (Ionotropic receptor 48b)	DRSC06320	3.97e7	4.71e7		1.94e7	1.97e7	inactive
CG12159	DRSC06114	4.22e7	1.95e7		1.89e7	1.17e7	inactive
BHD (Birt-Hogg-Dube)	DRSC11017	4.50e7	2.86e7		3.06e7	1.29e7	inactive
BHD (Birt-Hogg-Dube)	DRSC22833	3.21e7	3.91e7		1.68e7	1.81e7	inactive
CG31267	DRSC15748	3.20e7	6.98e7		1.70e7	7.59e7	inactive
